# Source: patent US20130005747A1, “METHOD FOR SELECTING A CANCER THERAPY” (Cyclacel Limited, priority 2010, published 2013)
# System: NSCLC cell lines
# Experiment: Pharmacogenomic analysis, NSCLC cell lines, summary
# Type: cell-based, human
# Conditions: of 52 NSCLC cell lines; number (%)
structure (smiles),measurement,value
"CC[C@H](CO)Nc1nc(NCc2ccccc2)c2ncn(C(C)C)c2n1 [seliciclib, roscovitine]",NSCLC cell lines with marked sensitivity (fractional growth ≦50% versus controls),29 (56%)
same,NSCLC cell lines with modest sensitivity (fractional growth between 75% and 50%),21 (40%)
